PubChem BioAssay AID686937 – Drosophila RNAi Screening Center | 2013

Test: 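Knock-downs that reduce output of a secreted reporter enzyme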 (primary screen)
Cells: Drosophila S2 cells expressing secreted horseradish peroxidase
Reagents: long dsRNA against Drosophila genes
Time to read-out: about 5.5 days (5 days dsRNA, then 12 h reporter induction)
Challenge: reporter expression induced after 5 days of dsRNA, read 12 h later; inducer not stated
Detection: 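After 5 days of dsRNA and 12 h of reporter induction, medium peroxidase read by chemiluminescence and scored as per-plate z-score; higher values mean more reporter released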
Reading the numbers: z-score: higher = more reporter secreted into medium
The screen tested about 23,000 reagents; below is an unselected part of those that have a named target and a result. 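Reduced-secretion tags in replicate 1 do not always agree with the z-scores; no criterion for assigning the tags was given.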 No sequences are given here. Not stated in the record: the amount of reagent.

With knock-down of shi (shibire) the results were z-score, replicate 1 = 0.69; z-score, replicate 2 = 0.37. For fest (wurstfest), the entry reads z-score, replicate 1 = 0.33; z-score, replicate 2 = 0.21. After knock-down of Polr1F (RNA polymerase I subunit F) the results were z-score, replicate 1 = 0.22; z-score, replicate 2 = -0.14. CG17754 showed z-score, replicate 1 = 0.05; z-score, replicate 2 = 0.32. With knock-down of CG4927, the record shows z-score, replicate 1 = 0.29; z-score, replicate 2 = 0.03. Against CG16998, the entry reads z-score, replicate 1 = 0.29; z-score, replicate 2 = 0.21.

Cyt-b5 (Cytochrome b5) gave z-score, replicate 1 = 0.36; z-score, replicate 2 = 0.24. Against meng (meng-po), the values are z-score, replicate 1 = 0.59; z-score, replicate 2 = 0.19. For CG15531 the deposit lists z-score, replicate 1 = 0.34; z-score, replicate 2 = 0.08. For Chd3 the deposit lists z-score, replicate 1 = 0.41; z-score, replicate 2 = 0.42. Against Glys (Glycogen synthase) the deposit lists z-score, replicate 1 = 0.53; z-score, replicate 2 = 0.64. CG14011 scored z-score, replicate 1 = 0.09; z-score, replicate 2 = 0.02.

fray (frayed) gave z-score, replicate 1 = -0.35; z-score, replicate 2 = -0.62. Knock-down of en (engrailed) came out at: z-score, replicate 1 = 0.4; z-score, replicate 2 = 0.42. Knock-down of pix (pixie) resulted in: z-score, replicate 1 = -1.99; z-score, replicate 2 = -0.88. CG17739 showed z-score, replicate 1 = 0.37; z-score, replicate 2 = 0.39.
